PubChem BioAssay AID1259308, NCATS – 2017
Shown is a random part of about 59,000 reagents. Of all reagents, about 1,510 (2.6%) got an active call. 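Calls use total luciferase alone and ignore viability, so some active siRNAs may act by altering cell number.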 The numbers tell different reagents against one gene apart.

- Purpose: 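Knock-downs that increase output of a recombinant reporter protein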 (primary screen)
- Cell system: human HEK293 embryonic kidney cells stably expressing firefly luciferase (HEK-CMV-Luc2-Hygro)
- Knock-down reagent: single siRNA against human genes, 0.8 pmol siRNA per well
- Timing: 72 h
- Detection: 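Luciferase light (ONE-Glo) measured on one replicate plate set and viability (CellTiter-Glo) on the other, scaled to a negative control siRNA, with robust z-scores and luciferase per cell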
- Scale: total luciferase, z-score and total luciferase, % of control: higher = more reporter protein produced; luciferase per cell, z-score: higher = more reporter output per viable cell; viable cells, % of control: higher = more viable cells
- Active means: 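Active when the median/MAD z-score for overall luciferase is greater than 3; a gene was taken forward for validation with new siRNAs if at least two of its three siRNAs passed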
- Meaning of the calls: active = raised luciferase; inactive = no rise

| gene knocked down | siRNA no. | total luciferase, z-score | total luciferase, % of control | luciferase per cell, z-score | viable cells, % of control | call |
| --- | --- | --- | --- | --- | --- | --- |
| OTUD5 | 1 | 0.301 | 87.9 | 3.66 | 37.4 | inactive |
| OTUD5 | 2 | -0.816 | 65.7 | -0.427 | 82.1 | inactive |
| OTUD5 | 3 | -1.67 | 48.7 | -1.49 | 80.7 | inactive |
| CRYGA | 1 | -0.465 | 72.6 | -0.0635 | 82.5 | inactive |
| CRYGA | 2 | 1.8 | 118 | 1.02 | 100 | inactive |
| CRYGA | 3 | 2.77 | 137 | 2.37 | 82 | inactive |
| SLC13A5 | 1 | 0.00689 | 82 | 0.0281 | 91 | inactive |
| SLC13A5 | 2 | -0.281 | 76.3 | -0.719 | 103 | inactive |
| SLC13A5 | 3 | -0.933 | 63.3 | -0.634 | 83.6 | inactive |
| LIMS1 | 1 | 1.5 | 112 | 0.332 | 114 | inactive |
| LIMS1 | 2 | -1.21 | 57.9 | 0.589 | 55.4 | inactive |
| LIMS1 | 3 | -1.42 | 53.7 | 0.253 | 56.1 | inactive |
| CCDC92 | 1 | -0.644 | 69.1 | -0.891 | 97.6 | inactive |
| CCDC92 | 2 | -0.0597 | 80.7 | 0.383 | 81.5 | inactive |
| CCDC92 | 3 | -1.4 | 54.1 | 0.157 | 58 | inactive |
| TMEM243 | 1 | 0.193 | 85.7 | 0.619 | 81.4 | inactive |
| TMEM243 | 2 | 1.31 | 108 | 1.25 | 86.7 | inactive |
| TMEM243 | 3 | -0.387 | 74.2 | -1.47 | 122 | inactive |
| ZNF680P1 | 1 | 3.13 | 144 | 2.97 | 73.7 | active |
| ZNF680P1 | 2 | -0.831 | 65.4 | -0.385 | 80.8 | inactive |
| ZNF680P1 | 3 | -0.132 | 79.3 | 0.132 | 85.5 | inactive |
| OR1Q1 | 1 | -0.483 | 72.3 | 0.37 | 73.3 | inactive |
| OR1Q1 | 2 | -0.47 | 72.5 | -0.0778 | 82.7 | inactive |
| OR1Q1 | 3 | 0.428 | 90.4 | 0.437 | 90.1 | inactive |

Individual results from the entries so far.
CRYGA #3, total luciferase, % of control → 137
Value for CRYGA #1 under “call”: inactive
